This is an account of results in patent US20030103978A1.

Results are given in words; binding and its absence hold for the method and conditions named. Some results given as binding are weak or reduced against the parent protein; the word gives no strength. Where a sequence is shown, tags or fusion partners need not be part of it.

In this assay the target is T1, soluble ODAR-Fc fusion (FLAG-human ODAR extracellular domain-human Fc) (human) (UniProt Q9Y6Q6).
T1 sequence (looked up): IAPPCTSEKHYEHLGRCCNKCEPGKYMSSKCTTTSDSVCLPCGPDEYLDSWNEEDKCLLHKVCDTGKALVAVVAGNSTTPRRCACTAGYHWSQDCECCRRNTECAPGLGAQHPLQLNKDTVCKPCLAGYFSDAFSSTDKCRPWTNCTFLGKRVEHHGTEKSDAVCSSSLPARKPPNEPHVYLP
As to the kind of experiment: FRET competition assay: unlabelled OPGbp[143-317] (TBS) competing with Eu-labelled OPGbp[143-317] for sODAR-Fc (anti-human Fc-APC); ratio 665 nm/620 nm against Conc (nM), log axis.

B1: human OPGbp[143-317] (ligand, UniProt O14788 143-317, looked up)
chain: EKAMVDGSWLDLAKRSKLEAQPFAHLTINATDIPSGSHKVSLSSWYHDRGWAKISNMTFSNGKLIVNQDGFYYLYANICFRHHETSGDLATEYLQLMVYVTKTSIKIPSSHTLMKGGSTKYWSGNSEFHFYSINVGGFFKLRSGEEISIEVSNPSLLDPDQDATYFGAFKVRDID
Turning to B1, the binding entry is on record as “binds”.
